# In the supplement of paper PMC8728848:
# The other results are listed elsewhere or left out.
# Experiments:
# Assay in all cases: glycan array binding signal (z-score within array); higher = stronger binding
# Details in all cases: glycan notation: IUPAC condensed, linker removed
# [1] = target: Gal(b1-3)GlcNAc(b1-2)Man(a1-3)[Gal(b1-3)GlcNAc(b1-2)Man(a1-6)]Man(b1-4)GlcNAc(b1-4)[Fuc(a1-6)]GlcNAc
# Procedure, shortened: (§1)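 The Consortium for Functional Glycomics database supplied 3228 glycan arrays, of which those lacking an available protein sequence were dropped. The binding signal, a within-array Z-score, was averaged across arrays of the same protein sequence and across linkers. Negative scores can be read as non-binding.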
# [2] = target: Gal(b1-3)GlcNAc(b1-2)Man(a1-3)[GlcNAc(b1-4)][Gal(b1-3)GlcNAc(b1-2)Man(a1-6)]Man(b1-4)GlcNAc(b1-4)GlcNAc
# Procedure, shortened: as §1
# [3] = target: Gal(b1-3)GlcNAc(b1-2)[Gal(b1-3)GlcNAc(b1-6)]Man(a1-6)[Gal(b1-3)GlcNAc(b1-2)Man(a1-3)]Man(b1-4)GlcNAc(b1-4)GlcNAc
# Procedure, shortened: as §1
# [4] = target: Gal(b1-3)GlcNAc(b1-3)Gal(b1-3)GlcNAc
# Procedure, shortened: as §1
# [5] = target: Gal(b1-3)GlcNAc(b1-3)Gal(b1-4)Glc
# Procedure, shortened: as §1
# [6] = target: Gal(b1-3)GlcNAc(b1-3)Gal(b1-4)GlcNAc
# Procedure, shortened: as §1
# [7] = target: Gal(b1-3)GlcNAc(b1-3)Gal(b1-4)GlcNAc(b1-2)Man(a1-3)[Gal(b1-3)GlcNAc(b1-3)Gal(b1-4)GlcNAc(b1-2)Man(a1-6)]Man(b1-4)GlcNAc(b1-4)GlcNAc
# Procedure, shortened: as §1
# [8] = target: Gal(b1-3)GlcNAc(b1-3)Gal(b1-4)GlcNAc(b1-2)[Gal(b1-3)GlcNAc(b1-3)Gal(b1-4)GlcNAc(b1-6)]Man(a1-6)[Gal(b1-3)GlcNAc(b1-3)Gal(b1-4)GlcNAc(b1-2)Man(a1-3)]Man(b1-4)GlcNAc(b1-4)[Fuc(a1-6)]GlcNAc
# Procedure, shortened: as §1
# [9] = target: Gal(b1-3)GlcNAc(b1-3)Gal(b1-4)GlcNAc(b1-3)Gal(b1-4)GlcNAc(b1-2)[Gal(b1-3)GlcNAc(b1-3)Gal(b1-4)GlcNAc(b1-3)Gal(b1-4)GlcNAc(b1-6)]Man(a1-6)[Gal(b1-3)GlcNAc(b1-3)Gal(b1-4)GlcNAc(b1-3)Gal(b1-4)GlcNAc(b1-2)Man(a1-3)]Man(b1-4)GlcNAc(b1-4)[Fuc(a1-6)]GlcNAc
# Procedure, shortened: as §1
# [10] = target: Gal(b1-3)GlcNAc(b1-3)Gal(b1-4)GlcNAc(b1-6)[Gal(b1-3)GlcNAc(b1-3)]Gal(b1-4)Glc
# Procedure, shortened: as §1
# [11] = target: Gal(b1-3)GlcNAc(b1-3)Gal(b1-4)[Fuc(a1-3)]GlcNAc(b1-6)[Gal(b1-3)GlcNAc(b1-3)]Gal(b1-4)Glc
# Procedure, shortened: as §1
# [12] = target: Gal(b1-3)GlcNAc(b1-3)GalNAc
# Procedure, shortened: as §1
# [13] = target: Gal(b1-3)GlcNAc(b1-6)Gal(b1-4)GlcNAc
# Procedure, shortened: as §1
# [14] = target: Gal(b1-3)GlcNAc(b1-6)GalNAc
# Procedure, shortened: as §1
# [15] = target: Gal(b1-3)GlcNAc(b1-6)[Gal(b1-3)]GalNAc
# Procedure, shortened: as §1
# [16] = target: Gal(b1-3)GlcNAc6S
# Procedure, shortened: as §1
# [17] = target: Gal(b1-3)[Fuc(a1-4)]GlcNAc
# Procedure, shortened: as §1
# [18] = target: Gal(b1-3)[Fuc(a1-4)]GlcNAc(b1-2)Man
# Procedure, shortened: as §1
# [19] = target: Gal(b1-3)[Fuc(a1-4)]GlcNAc(b1-2)Man(a1-3)[Gal(b1-3)[Fuc(a1-4)]GlcNAc(b1-2)Man(a1-6)]Man(b1-4)GlcNAc(b1-4)[Fuc(a1-6)]GlcNAc
# Procedure, shortened: as §1
# [20] = target: Gal(b1-3)[Fuc(a1-4)]GlcNAc(b1-3)Gal(b1-3)[Fuc(a1-4)]GlcNAc
# Procedure, shortened: as §1
# [21] = target: Gal(b1-3)[Fuc(a1-4)]GlcNAc(b1-3)Gal(b1-4)GlcNAc
# Procedure, shortened: as §1
# [22] = target: Gal(b1-3)[Fuc(a1-4)]GlcNAc(b1-3)Gal(b1-4)[Fuc(a1-3)]GlcNAc
# Procedure, shortened: as §1
# [23] = target: Gal(b1-3)[Fuc(a1-4)]GlcNAc(b1-6)GalNAc
# Procedure, shortened: as §1
# [24] = target: Gal(b1-3)[GlcNAc(b1-6)]GalNAc
# Procedure, shortened: as §1
# [25] = target: Gal(b1-3)[Neu5Ac(a2-6)]GalNAc
# Procedure, shortened: as §1
# [26] = target: Gal(b1-3)[Neu5Ac(a2-6)]GlcNAc(b1-4)Gal(b1-4)Glc
# Procedure, shortened: as §1
# [27] = target: Gal(b1-3)[Neu5Ac(b2-6)]GalNAc
# Procedure, shortened: as §1
# [28] = target: Gal(b1-4)Gal
# Procedure, shortened: as §1
# [29] = target: Gal(b1-4)GalNAc(a1-3)[Fuc(a1-2)]Gal(b1-4)GlcNAc
# Procedure, shortened: as §1
# [30] = target: Gal(b1-4)GalNAc(b1-3)[Fuc(a1-2)]Gal(b1-4)GlcNAc
# Procedure, shortened: as §1
# [31] = target: Gal(b1-4)Glc
# Procedure, shortened: as §1
# [32] = target: Gal(b1-4)Glc6S
# Procedure, shortened: as §1
# [33] = target: Gal(b1-4)GlcNAc
# Procedure, shortened: as §1
# [34] = target: Gal(b1-4)GlcNAc(a1-6)Gal(b1-4)GlcNAc
# Procedure, shortened: as §1
# [35] = target: Gal(b1-4)GlcNAc(b1-2)Man
# Procedure, shortened: as §1
# [36] = target: Gal(b1-4)GlcNAc(b1-2)Man(a1-3)Man(b1-4)GlcNAc(b1-4)GlcNAc
# Procedure, shortened: as §1
# [37] = target: Gal(b1-4)GlcNAc(b1-2)Man(a1-3)[Gal(b1-4)GlcNAc(b1-2)Man(a1-6)]Man(b1-4)GlcNAc(b1-4)GlcNAc
# Procedure, shortened: as §1
# [38] = target: Gal(b1-4)GlcNAc(b1-2)Man(a1-3)[Gal(b1-4)GlcNAc(b1-2)Man(a1-6)]Man(b1-4)GlcNAc(b1-4)[Fuc(a1-6)]GlcNAc
# Procedure, shortened: as §1
# [39] = target: Gal(b1-4)GlcNAc(b1-2)Man(a1-3)[Gal(b1-4)GlcNAc(b1-2)Man(a1-6)][Gal(b1-4)GlcNAc(b1-4)]Man(b1-4)GlcNAc(b1-4)[Fuc(a1-6)]GlcNAc
# Procedure, shortened: as §1
# [40] = target: Gal(b1-4)GlcNAc(b1-2)Man(a1-3)[Gal(b1-4)GlcNAc(b1-2)Man(a1-6)][GlcNAc(b1-4)]Man(b1-4)GlcNAc(b1-4)[Fuc(a1-6)]GlcNAc
# Procedure, shortened: as §1
# [41] = target: Gal(b1-4)GlcNAc(b1-2)Man(a1-3)[GlcNAc(b1-2)Man(a1-6)]Man(b1-4)GlcNAc(b1-4)GlcNAc
# Procedure, shortened: as §1
# [42] = target: Gal(b1-4)GlcNAc(b1-2)Man(a1-3)[GlcNAc(b1-4)][Gal(b1-4)GlcNAc(b1-2)Man(a1-6)]Man(b1-4)GlcNAc(b1-4)GlcNAc
# Procedure, shortened: as §1
# [43] = target: Gal(b1-4)GlcNAc(b1-2)Man(a1-3)[Man(a1-6)]Man(b1-4)GlcNAc(b1-4)GlcNAc
# Procedure, shortened: as §1
# [44] = target: Gal(b1-4)GlcNAc(b1-2)Man(a1-6)Man(b1-4)GlcNAc(b1-4)GlcNAc
# Procedure, shortened: as §1
# [45] = target: Gal(b1-4)GlcNAc(b1-2)Man(a1-6)[GlcNAc(b1-2)Man(a1-3)]Man(b1-4)GlcNAc(b1-4)GlcNAc
# Procedure, shortened: as §1
binder,measurement,setting,value
"Tp0751, 83732 (protein) MSYYHHHHHHLESTSLYKKAGFQHGHVPPRRIPPHDTFGALPTAALPSNARDTAAHPSDTADNTSGSSTTTDPRSHGNAPPAPVGGAAQTHTQPPVQTAMRIALWNRATHGEQGALQHLLAGLWIQTEISPNSGDIHPLLFFDREHAEITFSRASVQEIFLVDSAHTHRKTVSFLTRNTAISSIRRRLEVTFESHEVIHVRAVEDVARLKIGSTSMWDGQYTRYHAGPASAPSP",glycan array binding signal (z-score),[1],-0.013
same,glycan array binding signal (z-score),[2],-0.054
same,glycan array binding signal (z-score),[3],-0.217
same,glycan array binding signal (z-score),[4],-0.474
same,glycan array binding signal (z-score),[5],0.067
same,glycan array binding signal (z-score),[6],-0.382
same,glycan array binding signal (z-score),[7],-0.087
same,glycan array binding signal (z-score),[8],1.41
same,glycan array binding signal (z-score),[9],-0.07
same,glycan array binding signal (z-score),[10],0.04
same,glycan array binding signal (z-score),[11],-0.401
same,glycan array binding signal (z-score),[12],-0.782
same,glycan array binding signal (z-score),[13],-0.428
same,glycan array binding signal (z-score),[14],-0.077
same,glycan array binding signal (z-score),[15],-0.35
same,glycan array binding signal (z-score),[16],0.206
same,glycan array binding signal (z-score),[17],-0.004
same,glycan array binding signal (z-score),[18],-0.163
same,glycan array binding signal (z-score),[19],-0.273
same,glycan array binding signal (z-score),[20],-0.323
same,glycan array binding signal (z-score),[21],-0.193
same,glycan array binding signal (z-score),[22],-0.612
same,glycan array binding signal (z-score),[23],-0.629
same,glycan array binding signal (z-score),[24],-0.373
same,glycan array binding signal (z-score),[25],-0.43
same,glycan array binding signal (z-score),[26],0.263
same,glycan array binding signal (z-score),[27],-0.271
same,glycan array binding signal (z-score),[28],-0.525
same,glycan array binding signal (z-score),[29],-0.503
same,glycan array binding signal (z-score),[30],-0.474
same,glycan array binding signal (z-score),[31],-0.383
same,glycan array binding signal (z-score),[32],0.366
same,glycan array binding signal (z-score),[33],0.21
same,glycan array binding signal (z-score),[34],-0.369
same,glycan array binding signal (z-score),[35],0.117
same,glycan array binding signal (z-score),[36],0.237
same,glycan array binding signal (z-score),[37],-0.395
same,glycan array binding signal (z-score),[38],-0.088
same,glycan array binding signal (z-score),[39],-0.093
same,glycan array binding signal (z-score),[40],-0.561
same,glycan array binding signal (z-score),[41],-0.071
same,glycan array binding signal (z-score),[42],-0.493
same,glycan array binding signal (z-score),[43],-0.826
same,glycan array binding signal (z-score),[44],-0.083
same,glycan array binding signal (z-score),[45],-0.456
